Experiment: Residual level detection in post fermentation derivatives (Central Analytical Laboratories)
Settings: introduced at 0.785 ppm, detection level 1.5 ppm minimum

| Molecule | residual level of antibiotic (Centrifuge Solid) | residual level of antibiotic (DDGS) | residual level of antibiotic (Syrup) | residual level of antibiotic (WDGS) |
| --- | --- | --- | --- | --- |
| CC1(C)S[C@@H]2[C@H](NC(=O)Cc3ccccc3)C(=O)N2[C@H]1C(=O)O.CCN(CC)CCOC(=O)c1ccc(N)cc1 [Penicillin G Procaine] | None detected | None detected | None detected | None detected |
| Virginiamycin | None detected** | None detected | 3.3 ppm | 2.8 ppm |

Source: patent US8828696B2, “Use of Penicillin G Procaine as a selective antimicrobial agent in the production of alcohol by fermentation” (Lallemand Specialites, Inc, priority 2008, dated 2014)
